# Source: article PMC5760103, “The translesion DNA polymerases Pol ζ and Rev1 are activated independently of PCNA ubiquitination upon UV radiation in mutants of DNA polymerase δ” (PLoS Genetics, 2017)
# Protein sequences, listed by entry. Tags and fused reporters are not part of them.
# UniProt P15873: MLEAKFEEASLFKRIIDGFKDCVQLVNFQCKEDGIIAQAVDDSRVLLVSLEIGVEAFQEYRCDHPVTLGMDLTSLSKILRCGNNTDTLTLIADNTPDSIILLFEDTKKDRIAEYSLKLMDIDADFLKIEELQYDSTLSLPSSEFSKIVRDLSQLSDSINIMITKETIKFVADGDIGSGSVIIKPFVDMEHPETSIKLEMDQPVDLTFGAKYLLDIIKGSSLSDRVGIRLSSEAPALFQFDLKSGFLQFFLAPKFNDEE
# No constants are given. Whether binding was seen depends on the method and setting. Some binding calls cover weakened binding; strength is not graded here. For some of these results: Tags and fused reporters may be left off the sequences shown.
# T1: Pol31-D304N fused to the lexA binding domain (pBTM116-Pol31-D304N) (S. cerevisiae) (UniProt P46957)
# T1 sequence: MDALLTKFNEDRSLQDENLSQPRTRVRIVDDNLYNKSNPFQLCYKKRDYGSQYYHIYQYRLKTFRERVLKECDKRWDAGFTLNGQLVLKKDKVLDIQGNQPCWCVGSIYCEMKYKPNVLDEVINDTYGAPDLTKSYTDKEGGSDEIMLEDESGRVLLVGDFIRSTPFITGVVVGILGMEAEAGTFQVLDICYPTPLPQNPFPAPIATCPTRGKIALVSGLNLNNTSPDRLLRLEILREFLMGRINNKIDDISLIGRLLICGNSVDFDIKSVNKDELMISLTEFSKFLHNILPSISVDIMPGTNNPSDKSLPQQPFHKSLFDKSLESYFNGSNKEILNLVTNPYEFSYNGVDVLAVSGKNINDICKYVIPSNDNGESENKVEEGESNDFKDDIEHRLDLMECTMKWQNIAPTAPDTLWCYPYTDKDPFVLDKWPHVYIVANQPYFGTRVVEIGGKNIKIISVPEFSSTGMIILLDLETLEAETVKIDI
# T2: Pol31 fused to the lexA binding domain (pBTM116-Pol31) (S. cerevisiae) (UniProt P46957)
# T2 sequence: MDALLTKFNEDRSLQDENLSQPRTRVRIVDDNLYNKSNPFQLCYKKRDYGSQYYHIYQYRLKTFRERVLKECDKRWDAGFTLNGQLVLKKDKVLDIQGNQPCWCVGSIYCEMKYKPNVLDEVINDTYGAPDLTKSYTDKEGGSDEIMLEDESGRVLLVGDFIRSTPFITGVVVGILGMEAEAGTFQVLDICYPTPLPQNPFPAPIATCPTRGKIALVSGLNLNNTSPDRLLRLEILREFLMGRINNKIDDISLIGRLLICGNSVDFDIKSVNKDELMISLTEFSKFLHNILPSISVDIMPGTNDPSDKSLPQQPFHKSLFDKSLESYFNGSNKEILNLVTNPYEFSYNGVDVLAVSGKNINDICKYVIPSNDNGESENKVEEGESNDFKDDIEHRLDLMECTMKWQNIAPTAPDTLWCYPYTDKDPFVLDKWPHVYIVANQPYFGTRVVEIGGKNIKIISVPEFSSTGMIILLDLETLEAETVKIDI
# Tests used:
# [1] = target: Recombinant S. cerevisiae PCNA with an His-Tag (S. cerevisiae) (UniProt P15873); assay: condition: 270 μM peptide in the syringe, 20–25 μM PCNA in the cell; ITC; VP-ITC; 20–25 μM PCNA in the cell, 270 μM peptide in the syringe; 30°C; buffer T (20 mM Tris pH 7.5, 50 mM NaCl, 20 mM β-mercaptoethanol); single set of independent binding sites model; both purified
# [2] = target: T1, Pol31-D304N fused to the lexA binding domain (pBTM116-Pol31-D304N) (S. cerevisiae); assay: two-hybrid; strain CTY10-5d; Pol31 on the lexA binding domain (pBTM116), Pol3 1032–1097 on the Gal4 activating domain (pACT2); β-galactosidase overlay plate assay at 22°C and 30°C
# [3] = target: T2, Pol31 fused to the lexA binding domain (pBTM116-Pol31) (S. cerevisiae); assay: as above
binding [1],binding [2],binding [3],Binder
no binding,–,–,TGSQKGGLMSFIKKVEACKSC [pPol3 992–1012]
–,no binding,binds,"Pol3 C-terminal amino acids 1032–1097 fused to the Gal4 activating domain (pACT2-Pol3-CTD) (domain or fragment, UniProt P15436 1032-1097) GELYIKALYDVRDLEEKYSRLWTQCQRCAGNLHSEVLCSNKNCDIFYMRVKVKKELQEKVEQLSKW"
–,–,binds weakly,"Pol3-R1043G, C-terminal amino acids 1032–1097 fused to the Gal4 activating domain (pACT2-Pol3-R1043G) (domain or fragment, UniProt P15436 1032-1097) GELYIKALYDVGDLEEKYSRLWTQCQRCAGNLHSEVLCSNKNCDIFYMRVKVKKELQEKVEQLSKW"
